# Values of other authors in patent US20100261711A1, “SELECTIVE ANTICONVULSANT AGENTS AND THEIR USES” (WiSys Technology Foundation, priority 2009, published 2010).
# By UniProt entry, the sequences of proteins in these tests, tags left out. Residues count along the entry.
# UniProt P18507, 40-475: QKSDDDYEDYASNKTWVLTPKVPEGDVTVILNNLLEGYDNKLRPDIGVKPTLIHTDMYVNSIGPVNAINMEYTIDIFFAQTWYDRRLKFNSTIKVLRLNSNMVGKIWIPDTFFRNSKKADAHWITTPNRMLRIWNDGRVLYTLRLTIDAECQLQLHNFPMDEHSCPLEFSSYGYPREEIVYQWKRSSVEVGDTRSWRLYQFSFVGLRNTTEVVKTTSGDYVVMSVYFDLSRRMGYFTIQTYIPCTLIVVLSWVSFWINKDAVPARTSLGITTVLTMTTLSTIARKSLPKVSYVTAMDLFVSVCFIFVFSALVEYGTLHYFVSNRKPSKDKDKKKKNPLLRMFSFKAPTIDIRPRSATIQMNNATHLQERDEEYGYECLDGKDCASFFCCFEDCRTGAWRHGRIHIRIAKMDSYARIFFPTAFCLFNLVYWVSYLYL
# UniProt P31644, 32-462: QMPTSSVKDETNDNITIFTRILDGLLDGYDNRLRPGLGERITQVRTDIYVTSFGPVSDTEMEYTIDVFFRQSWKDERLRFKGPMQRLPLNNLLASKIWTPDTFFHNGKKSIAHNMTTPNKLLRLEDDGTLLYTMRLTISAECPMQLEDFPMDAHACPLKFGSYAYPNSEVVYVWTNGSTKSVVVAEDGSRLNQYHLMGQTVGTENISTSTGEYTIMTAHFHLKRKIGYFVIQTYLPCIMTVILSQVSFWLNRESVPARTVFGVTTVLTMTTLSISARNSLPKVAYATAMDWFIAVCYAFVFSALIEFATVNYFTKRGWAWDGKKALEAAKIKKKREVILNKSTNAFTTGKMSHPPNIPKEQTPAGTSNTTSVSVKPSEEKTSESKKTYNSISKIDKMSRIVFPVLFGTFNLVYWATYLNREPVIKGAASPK
# Molecular target: GABAA/α5 receptors (Homo sapiens, UniProt P18507+P31644)
# Conditions: read-out: Ki GABAA/α5; Huang et al., J. Med. Chem. 2000, 43, 71-95; cited from earlier work
smiles,measurement,value
"CN1C(=O)CN=C(c2ccccc2)c2cc(Cl)ccc21 [Diazepam, reference compound]",Ki,< 25 nM
